Results from paper PMC7921949.
pKd: −log10 of the molar value. Construct, isoform or probe ends are uncertain for at least one entry.

The chains behind the UniProt entries cited, without tags or fusion partners. Residues count along the entry.
UniProt Q9EP73, 19-239: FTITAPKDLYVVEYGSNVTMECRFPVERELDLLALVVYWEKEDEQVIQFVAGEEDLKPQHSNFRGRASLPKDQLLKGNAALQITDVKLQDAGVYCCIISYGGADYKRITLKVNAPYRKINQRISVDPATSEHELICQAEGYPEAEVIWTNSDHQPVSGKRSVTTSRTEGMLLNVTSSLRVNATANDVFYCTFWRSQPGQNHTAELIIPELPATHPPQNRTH

Biological target: recombinant murine PD-L1 (mouse) (UniProt Q9EP73)
Test: binding assay
Conditions: PBS, room temperature, 30 min, 2x10^5 CT26 cells in 250 uL, three PBS washes, flow cytometry; Y = Bmax X/(Kd + X), n = 2; recombinant protein; label: FAM (CT26 assays); single-stranded DNA

“ACGGGCCACATCAACTCATTGATAGACAATGCGTCCACTGCCCGT [free PD-L1 aptamer (Apt)]” was tested, and the pKd was 7.14.
